Results published in PubChem BioAssay AID588590 (National Center for Advancing Translational Sciences (NCATS), 2011).
Hit rate of the full screen: of about 390,000 compounds, about 4,000 (1%) were called active. Inconclusive results, whose numbers are uncertain, are shown with a selection of clear calls. The call rests on the fitted dose curve; in most records, active means well fitted inhibition curve with a large enough effect; inconclusive means small, poorly fitted or top-dose-only effect, or another doubt; inactive means no such curve, though single readings can be large or run the other way. Potencies of inconclusive entries are doubtful fits and often do not repeat. Non-standard residues stand in square brackets, D forms with d. Residues, ends and D or L forms follow the SMILES beside them. pGlu = O=C1CC[CH](C(=O)O)N1

Chains of the proteins cited; added tags and fusions are not shown. Lines headed by an entry give the natural chain unless they say otherwise; changes in a name come on top.
UniProt Q9UNA4: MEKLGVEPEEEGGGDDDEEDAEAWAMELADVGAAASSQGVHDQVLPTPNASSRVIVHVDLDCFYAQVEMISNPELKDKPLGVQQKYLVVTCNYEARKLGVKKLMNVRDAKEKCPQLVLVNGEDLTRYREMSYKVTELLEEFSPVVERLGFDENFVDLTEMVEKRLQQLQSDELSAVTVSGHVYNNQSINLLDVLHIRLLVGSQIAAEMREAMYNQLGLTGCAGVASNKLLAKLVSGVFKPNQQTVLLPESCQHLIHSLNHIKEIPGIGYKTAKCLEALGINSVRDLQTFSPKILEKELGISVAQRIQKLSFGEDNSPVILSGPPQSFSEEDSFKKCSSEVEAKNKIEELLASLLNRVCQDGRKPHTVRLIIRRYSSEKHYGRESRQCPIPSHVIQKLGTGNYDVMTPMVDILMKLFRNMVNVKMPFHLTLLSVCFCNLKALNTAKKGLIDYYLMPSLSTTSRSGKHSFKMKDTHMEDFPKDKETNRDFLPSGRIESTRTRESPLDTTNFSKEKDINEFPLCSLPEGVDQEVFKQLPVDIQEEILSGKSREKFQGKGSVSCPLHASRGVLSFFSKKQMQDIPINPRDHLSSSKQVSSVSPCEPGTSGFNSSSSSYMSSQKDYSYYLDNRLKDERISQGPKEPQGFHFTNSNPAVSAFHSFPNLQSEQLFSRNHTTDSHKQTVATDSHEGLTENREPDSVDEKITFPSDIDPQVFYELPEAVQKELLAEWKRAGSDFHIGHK

The compounds below were run against DNA polymerase iota (Homo sapiens) (UniProt Q9UNA4) (assay: qHTS for Inhibitors of Polymerase Iota). Conditions: Pol iota fluorescent replication assay, 10 min; series mostly up to 115 µM; activity, negative = inhibition: at the top concentration.
How it was run: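 Pol iota at 10 nM preincubated 15 min with compounds at room temperature; reaction started with fluorescent substrate, 50 nM final. Fluorescence read kinetically at 0 and 10 min; buffer-only wells as negative control.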
Potency means the concentration at half of the fitted maximal effect.

Row | Structure (SMILES) | Potency | activity, negative = inhibition
1 | O=C(N/N=C/c1ccncc1)c1cccc(NC(=O)c2ccc(Cl)cc2)c1 | inconclusive: 50.1 µM [inhibitor, partial curve, poor fit] | –
2 | CC(C)Cn1c(N)c(C(=O)COC(=O)c2ccc(O)cc2O)c(=O)n(C)c1=O | – | inactive: 22.6%
3 | Cc1ccc(Cl)cc1NC(=O)C(NS(=O)(=O)c1cccc2nsnc12)c1ccccc1 (stereo not given) | – | inactive: -14.5%
4 | Cc1cccn2c(=O)c(/C=C(\C#N)c3nc4ccccc4s3)c(Oc3ccc(Br)cc3)nc12 | inconclusive: 56.2 µM [inhibitor, partial curve, poor fit] | –
5 | O=C1C=C(NCc2ccc(Cl)cc2)CC(c2ccco2)C1 (stereo not given) | inconclusive: 44.7 µM [inhibitor, partial curve] | –
6 | C/C(=N\NC(=O)c1ccc(O)cc1)c1ccc2c(c1)Nc1ccccc1S2 | – | inactive: 26%
7 | Cc1ccc(N=Nc2c(C)[nH]n(-c3ccccc3)c2=O)cc1 | inconclusive: 11.2 µM [inhibitor, partial curve, poor fit] | –
8 | COc1ccc(-c2cc(OC(=O)c3ccc(F)cc3)c3c(C)oc(C)c3c(=O)c2)cc1OC | inconclusive: 79.4 µM [inhibitor, single point] | –
9 | Cc1ccc([N+](=O)[O-])cc1-c1ccc(/C=C(\C#N)c2[nH]nc(N)c2C#N)o1 | active: 56.2 µM | –
10 | CCc1nn(CC(=O)NCc2ccc(OC)cc2OC)c(=O)c2cc3c(OC)cccc3n12 | – | inactive: 3.83%
11 | CCN1/C(=C/C(=O)c2ccco2)Sc2ccccc21 | inconclusive: 12.6 µM [inhibitor, partial curve, poor fit] | –
12 | COc1ccc2c(-c3ccccc3)cc3nnnn3c2c1 | inconclusive: 89.1 µM [inhibitor, single point] | –
13 | Cc1ccc(-n2c3nc(=O)[nH]c(=O)c-3cc3cc([N+](=O)[O-])ccc32)cc1C | – | inactive: 50.3%
14 | COCCCNc1ncnc2c1sc1nc(-c3ccco3)c3c(c12)CC(C)(C)OC3 | inconclusive: 25.1 µM [inhibitor, partial curve] | –
15 | Cc1nc([N+](=O)[O-])c(Br)n1CC(=O)c1cccc([N+](=O)[O-])c1 | inconclusive: 100 µM [inhibitor, partial curve, poor fit] | –
16 | Cc1cccc(NC(=O)CN2C(=O)COc3ccc(S(=O)(=O)N4CCC(C)CC4)cc32)c1C | – | inactive: 17.7%
17 | O=C1CCN(CCc2ccccc2)CCN1[C@H](COc1ccccc1)c1ccccc1 | inconclusive: 31.6 µM [inhibitor, partial curve] | –
18 | N#Cc1c(N)n(-c2ccccc2)c(=O)c2cc([N+](=O)[O-])ccc12 | – | inactive: 30.4%
19 | Nn1cnnc1N/N=C/c1cccc(Cl)c1Cl | inconclusive: 7.94 µM [inhibitor, full curve, poor fit] | –
20 | CCc1ccc(CNC(=O)C2CCCN(c3nn4cc(-c5ccc(F)cc5)nc4s3)C2)cc1 (stereo not given) | – | inactive: 1.41%
21 | CCOC(=O)c1ccccc1NC(=O)N1CCCN(S(=O)(=O)c2ccc3c(ccn3CC)c2)CC1 | – | inactive: -2.37%
22 | Cc1cc(C(=O)N/N=C\c2ccc(COc3ccc([N+](=O)[O-])cc3)o2)ccc1[N+](=O)[O-] | inconclusive: 1.58 µM [inhibitor, partial curve, poor fit] | –

3 compounds drawn at random from those above, as already listed:
Row | Structure (SMILES) | Potency | activity, negative = inhibition
10 | CCc1nn(CC(=O)NCc2ccc(OC)cc2OC)c(=O)c2cc3c(OC)cccc3n12 | – | inactive: 3.83%
9 | Cc1ccc([N+](=O)[O-])cc1-c1ccc(/C=C(\C#N)c2[nH]nc(N)c2C#N)o1 | active: 56.2 µM | –
2 | CC(C)Cn1c(N)c(C(=O)COC(=O)c2ccc(O)cc2O)c(=O)n(C)c1=O | – | inactive: 22.6%

(further entries)

Row | Structure (SMILES) | Potency | activity, negative = inhibition
23 | Cc1ccc(NC2c3ncccc3C(=O)N2Cc2cccs2)cc1 (stereo not given) | inconclusive: 12.6 µM [inhibitor, partial curve] | –
24 | O=C(O)c1cccc(NC2=C(N3CCOCC3)C(=O)c3ccccc3C2=O)c1 | inconclusive: 17.8 µM [inhibitor, partial curve, poor fit] | –
25 | N#CC1=C(N)Oc2cc(N)ccc2C1c1ccsc1 (stereo not given) | inconclusive: 100 µM [inhibitor, single point] | –
26 | CCCCN(C(=O)COC(=O)c1ccc(C)s1)c1c(N)n(CCC)c(=O)[nH]c1=O | – | inactive: 21.5%
27 | Nc1c(C2CCCCC2)c(=O)on1C(=O)c1ccccc1 | inconclusive: 35.5 µM [inhibitor, single point] | –
28 | Cc1cc(C)cc(NC(=S)N2CCN(c3ncccn3)CC2)c1 | inconclusive: 25.1 µM [inhibitor, full curve, poor fit] | –
29 | O=[N+]([O-])c1ccc2nc(C(O)C(O)c3nc4ccc([N+](=O)[O-])cc4[nH]3)[nH]c2c1 (stereo not given) | inconclusive: 28.2 µM [inhibitor, partial curve, poor fit] | –
30 | CC(C)CC(NC(=O)C1CCC(=O)N1)C(=O)NC(CC(C)C)C(=O)N1CCCC1C(N)=O (stereo not given) ([pGlu]LLP-NH2; configuration not given here) | inconclusive: 25.1 µM [inhibitor, partial curve] | –
31 | CNC(=S)N/N=C(\C)c1ccc(N2CCOCC2)cc1 | inconclusive: 39.8 µM [inhibitor, single point] | –
32 | O=C1NC(c2cccs2)Nc2ccccc21 (stereo not given) | – | inactive: -7.77%
33 | COc1ccccc1NC(=O)CSc1nnc(-c2nonc2NC(C)=O)n1-c1ccccc1 | – | inactive: 23.5%
34 | O=C(NC(NC(=S)Nc1ccccc1C(=O)O)C(Cl)(Cl)Cl)c1cccc([N+](=O)[O-])c1 (stereo not given) | inconclusive: 39.8 µM [inhibitor, single point] | –
35 | CCOc1ccc(N)c(SSc2cc(OCC)ccc2N)c1 | inconclusive: 25.1 µM [inhibitor, partial curve, poor fit] | –
36 | Cc1ccc(NC(=O)COc2ccc(/C=C3/SC(=Nc4ccccc4)N(Cc4cccnc4)C3=O)cc2)cc1 | – | inactive: 16.5%
37 | O=C(NN1C(=O)C2C3C=CC(C3)C2C1=O)c1cccc(Cl)c1 (stereo not given) | inconclusive: 100 µM [inhibitor, single point] | –
38 | CC1(C)C(=O)Nc2ccccc2N1C(=O)CSc1nc(-c2ccccc2)cs1 | inconclusive: 14.1 µM [inhibitor, partial curve, poor fit] | –
39 | C/C(N)=C(/C#N)C(=O)CSc1nnc(-c2ccc3c(c2)OCO3)o1 | inconclusive: 56.2 µM [inhibitor, single point] | –
40 | Cc1nnc2ccc(-c3ccc(NS(=O)(=O)c4ccccc4F)cc3)nn12 | inconclusive: 22.4 µM [inhibitor, partial curve, poor fit] | –
41 | O=C1CC(c2ccco2)CC2=C1C(c1ccccc1)n1nc(C(F)(F)F)nc1N2 (stereo not given) | inconclusive: 89.1 µM [inhibitor, single point] | –
42 | Cc1nnc(Nc2ccc(O)cc2)[nH]c1=O | inconclusive: 14.1 µM [inhibitor, full curve, poor fit] | –
43 | CCNC(=O)c1sc(-c2ccccc2)nc1C | – | inactive: 27.1%
44 | Cc1ccc(C(C)C)c(OCC(=O)NC2CCN(C)CC2)c1 | – | inactive: 0.266%

Row | Structure (SMILES) | Potency | activity, negative = inhibition
45 | O=C(CSc1ccc(-c2ccco2)nn1)NCCc1ccccc1 | inconclusive: 50.1 µM [inhibitor, partial curve, poor fit] | –
46 | CCOc1ccc(C(=O)Nc2cc3c(cc2N2CCCC2)n(CC)c(=O)n3CC)cc1OCC | inconclusive: 25.1 µM [inhibitor, partial curve, poor fit] | –
47 | COc1ccc(C2=Nn3c(nnc3-c3ccccc3F)SC2)cc1OC1CCOC1 (stereo not given) | – | inactive: -18.4%
48 | Cc1ccc2c(c1)CCCN2CC(=O)N(C)c1c(N)n(Cc2ccccc2)c(=O)[nH]c1=O | inconclusive: 100 µM [inhibitor, partial curve, poor fit] | –
49 | Nc1nc(NCCO)nc(NCC2CCCO2)c1[N+](=O)[O-] (stereo not given) | – | inactive: 15.4%
50 | O=C(/C(=C(\[O-])c1ccccc1)[n+]1ccc2ccccc2c1)c1ccc([N+](=O)[O-])cc1 | – | inactive: 67.3%
51 | O=[N+]([O-])c1ccc2cc[nH]c2c1 | inconclusive: 56.2 µM [inhibitor, partial curve, poor fit] | –
52 | CC1CCCCC1n1c(=S)[nH]c2ccccc2c1=O (stereo not given) | inconclusive: 39.8 µM [inhibitor, partial curve] | –
53 | Cc1ccc2c(CC(=O)Nc3c(C(=O)c4ccc(F)cc4)oc4ccccc34)coc2c1 | – | inactive: -4.73%
54 | COCCNC(=O)Cn1cnc2c(cnn2-c2ccc(C)cc2)c1=O | inconclusive: 89.1 µM [inhibitor, partial curve, poor fit] | –
55 | CS(=O)(=O)c1ccc(-c2sc3cc4c(cc3c2C(=O)NN2CCOCC2)OCO4)cc1 | inconclusive: 35.5 µM [inhibitor, full curve] | –
56 | CCNC(=O)c1ccccc1NC(=O)c1cccc(S(=O)(=O)N2CCC(C)CC2)c1 | inconclusive: 7.94 µM [inhibitor, full curve, poor fit] | –
57 | COc1ccc(SCC(Cc2ccccc2)N2CCN(CC(C)C)CCC2=O)cc1 (stereo not given) | inconclusive: 35.5 µM [inhibitor, single point] | –
58 | O=C(COC(=O)C1CCCC1)Nc1ncc(Cl)cc1Cl | inconclusive: 22.4 µM [inhibitor, full curve] | –
59 | Cc1ccc(-n2nc3ccc(NC(=O)/C=C/c4ccco4)cc3n2)cc1C | inconclusive: 15.8 µM [inhibitor, full curve] | –
60 | O=c1[nH]c(=S)[nH]c2scc(-c3ccc(Br)cc3)c12 | inconclusive: 17.8 µM [inhibitor, partial curve] | –
61 | Cn1ncc(C#N)c1NC(=O)c1cc(-c2ccccc2Cl)on1 | inconclusive: 100 µM [inhibitor, single point] | –
62 | CCCC1=[N+](CC(=O)c2ccccc2)CCn2c(C)ccc21 | inconclusive: 8.91 µM [inhibitor, partial curve, poor fit] | –
63 | Cc1[nH]c(=O)nc(SCc2ccc(Cl)c(Cl)c2)c1C#N | – | inactive: 3.39%
64 | COc1cc(O)c(C(CCN2CCCC2)c2cc(OC)c(OC)c(OC)c2)c(OC)c1 (stereo not given) | inconclusive: 89.1 µM [inhibitor, single point] | –
65 | Cc1sc2nc(CSC(C)C(=O)Nc3ccc(C(N)=O)cc3)[nH]c(=O)c2c1C (stereo not given) | inconclusive: 22.4 µM [inhibitor, partial curve, poor fit] | –
